# Measurements from the supplement of paper PMC7666118.
# The chains behind the UniProt entries cited, without tags or fusion partners. Where a name states a change or a piece, a line headed by the entry shows the natural chain unless it says otherwise.
# UniProt O95793: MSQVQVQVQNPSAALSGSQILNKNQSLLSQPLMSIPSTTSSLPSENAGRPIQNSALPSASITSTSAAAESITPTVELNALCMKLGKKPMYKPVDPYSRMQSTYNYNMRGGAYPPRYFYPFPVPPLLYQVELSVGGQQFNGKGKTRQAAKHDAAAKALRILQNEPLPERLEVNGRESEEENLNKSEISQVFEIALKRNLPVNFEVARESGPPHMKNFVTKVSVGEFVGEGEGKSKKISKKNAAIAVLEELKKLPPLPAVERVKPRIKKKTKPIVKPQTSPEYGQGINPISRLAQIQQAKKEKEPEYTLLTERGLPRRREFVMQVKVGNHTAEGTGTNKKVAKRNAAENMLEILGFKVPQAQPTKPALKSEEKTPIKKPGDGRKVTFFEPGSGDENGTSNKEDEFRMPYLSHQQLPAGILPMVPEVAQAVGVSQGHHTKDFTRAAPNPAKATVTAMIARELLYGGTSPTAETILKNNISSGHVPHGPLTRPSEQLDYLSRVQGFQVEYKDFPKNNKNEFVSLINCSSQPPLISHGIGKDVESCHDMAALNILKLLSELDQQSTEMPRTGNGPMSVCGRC
# UniProt Q8TDR4: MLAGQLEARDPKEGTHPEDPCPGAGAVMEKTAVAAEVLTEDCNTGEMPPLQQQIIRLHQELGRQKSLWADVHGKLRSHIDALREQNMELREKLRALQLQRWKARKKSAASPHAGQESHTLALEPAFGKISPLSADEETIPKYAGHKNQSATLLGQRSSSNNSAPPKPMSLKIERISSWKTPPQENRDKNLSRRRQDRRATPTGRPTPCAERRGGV
# UniProt Q9BYT3: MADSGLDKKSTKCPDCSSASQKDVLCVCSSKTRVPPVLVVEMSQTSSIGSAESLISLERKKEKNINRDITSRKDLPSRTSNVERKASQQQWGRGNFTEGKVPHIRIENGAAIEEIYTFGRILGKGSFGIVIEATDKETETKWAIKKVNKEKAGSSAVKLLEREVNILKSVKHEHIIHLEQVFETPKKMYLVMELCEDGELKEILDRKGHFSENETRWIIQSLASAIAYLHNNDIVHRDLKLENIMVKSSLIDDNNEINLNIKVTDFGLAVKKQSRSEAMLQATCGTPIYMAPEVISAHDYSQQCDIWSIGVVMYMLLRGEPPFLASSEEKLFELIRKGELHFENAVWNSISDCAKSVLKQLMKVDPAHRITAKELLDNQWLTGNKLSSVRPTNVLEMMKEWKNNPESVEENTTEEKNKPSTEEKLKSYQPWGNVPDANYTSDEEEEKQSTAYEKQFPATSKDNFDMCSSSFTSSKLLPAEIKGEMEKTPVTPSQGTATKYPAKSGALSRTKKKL
# UniProt P53597: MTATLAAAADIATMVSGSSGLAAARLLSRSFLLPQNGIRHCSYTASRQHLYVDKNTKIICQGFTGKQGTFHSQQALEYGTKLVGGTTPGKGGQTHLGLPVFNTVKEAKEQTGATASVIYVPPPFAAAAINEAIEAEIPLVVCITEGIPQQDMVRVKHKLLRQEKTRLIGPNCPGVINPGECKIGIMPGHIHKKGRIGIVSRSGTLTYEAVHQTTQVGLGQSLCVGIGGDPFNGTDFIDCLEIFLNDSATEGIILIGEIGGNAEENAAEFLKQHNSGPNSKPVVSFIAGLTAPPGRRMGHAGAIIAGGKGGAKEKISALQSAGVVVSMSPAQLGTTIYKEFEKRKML
# UniProt Q08945, whole entry: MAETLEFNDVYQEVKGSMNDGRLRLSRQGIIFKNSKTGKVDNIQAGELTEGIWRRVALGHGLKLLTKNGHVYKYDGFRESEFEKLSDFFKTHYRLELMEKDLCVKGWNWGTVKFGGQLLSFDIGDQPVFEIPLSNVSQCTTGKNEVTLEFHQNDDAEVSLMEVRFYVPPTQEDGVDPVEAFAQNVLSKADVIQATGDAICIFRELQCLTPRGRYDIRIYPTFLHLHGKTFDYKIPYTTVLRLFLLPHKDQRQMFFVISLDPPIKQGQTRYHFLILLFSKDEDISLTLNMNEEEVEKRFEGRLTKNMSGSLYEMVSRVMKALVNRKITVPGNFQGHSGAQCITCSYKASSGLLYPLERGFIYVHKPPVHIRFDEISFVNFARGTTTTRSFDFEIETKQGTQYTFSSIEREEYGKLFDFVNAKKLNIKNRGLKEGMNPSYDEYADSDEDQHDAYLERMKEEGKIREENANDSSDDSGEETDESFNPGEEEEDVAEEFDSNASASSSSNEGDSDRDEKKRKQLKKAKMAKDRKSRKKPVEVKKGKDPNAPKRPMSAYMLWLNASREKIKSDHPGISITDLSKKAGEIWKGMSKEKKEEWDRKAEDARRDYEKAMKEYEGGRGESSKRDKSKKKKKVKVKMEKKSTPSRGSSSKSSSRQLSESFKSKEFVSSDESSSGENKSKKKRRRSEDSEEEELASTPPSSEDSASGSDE
# UniProt O15260: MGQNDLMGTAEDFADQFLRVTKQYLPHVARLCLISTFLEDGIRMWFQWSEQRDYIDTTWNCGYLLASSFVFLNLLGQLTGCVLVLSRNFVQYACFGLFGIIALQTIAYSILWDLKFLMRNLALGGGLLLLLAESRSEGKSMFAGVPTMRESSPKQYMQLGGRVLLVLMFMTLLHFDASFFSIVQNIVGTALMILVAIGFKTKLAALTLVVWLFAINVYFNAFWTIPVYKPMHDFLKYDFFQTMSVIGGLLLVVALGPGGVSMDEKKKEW
# UniProt Q9UHB9: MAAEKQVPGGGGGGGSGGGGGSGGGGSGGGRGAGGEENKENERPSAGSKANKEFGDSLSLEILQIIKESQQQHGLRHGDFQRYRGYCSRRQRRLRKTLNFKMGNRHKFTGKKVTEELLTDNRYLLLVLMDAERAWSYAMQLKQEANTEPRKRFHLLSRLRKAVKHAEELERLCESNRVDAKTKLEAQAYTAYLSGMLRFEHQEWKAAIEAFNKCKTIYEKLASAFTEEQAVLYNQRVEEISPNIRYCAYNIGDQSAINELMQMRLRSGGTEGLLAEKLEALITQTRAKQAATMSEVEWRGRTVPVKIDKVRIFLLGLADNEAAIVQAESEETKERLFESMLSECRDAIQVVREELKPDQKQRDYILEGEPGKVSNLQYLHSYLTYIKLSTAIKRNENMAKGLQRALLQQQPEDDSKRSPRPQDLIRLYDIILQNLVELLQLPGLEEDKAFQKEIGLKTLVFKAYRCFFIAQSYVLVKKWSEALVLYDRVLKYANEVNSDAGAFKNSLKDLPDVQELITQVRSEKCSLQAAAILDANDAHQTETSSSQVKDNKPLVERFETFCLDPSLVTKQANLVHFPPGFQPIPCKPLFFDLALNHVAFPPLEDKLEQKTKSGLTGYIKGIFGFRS
# UniProt Q8IYB8: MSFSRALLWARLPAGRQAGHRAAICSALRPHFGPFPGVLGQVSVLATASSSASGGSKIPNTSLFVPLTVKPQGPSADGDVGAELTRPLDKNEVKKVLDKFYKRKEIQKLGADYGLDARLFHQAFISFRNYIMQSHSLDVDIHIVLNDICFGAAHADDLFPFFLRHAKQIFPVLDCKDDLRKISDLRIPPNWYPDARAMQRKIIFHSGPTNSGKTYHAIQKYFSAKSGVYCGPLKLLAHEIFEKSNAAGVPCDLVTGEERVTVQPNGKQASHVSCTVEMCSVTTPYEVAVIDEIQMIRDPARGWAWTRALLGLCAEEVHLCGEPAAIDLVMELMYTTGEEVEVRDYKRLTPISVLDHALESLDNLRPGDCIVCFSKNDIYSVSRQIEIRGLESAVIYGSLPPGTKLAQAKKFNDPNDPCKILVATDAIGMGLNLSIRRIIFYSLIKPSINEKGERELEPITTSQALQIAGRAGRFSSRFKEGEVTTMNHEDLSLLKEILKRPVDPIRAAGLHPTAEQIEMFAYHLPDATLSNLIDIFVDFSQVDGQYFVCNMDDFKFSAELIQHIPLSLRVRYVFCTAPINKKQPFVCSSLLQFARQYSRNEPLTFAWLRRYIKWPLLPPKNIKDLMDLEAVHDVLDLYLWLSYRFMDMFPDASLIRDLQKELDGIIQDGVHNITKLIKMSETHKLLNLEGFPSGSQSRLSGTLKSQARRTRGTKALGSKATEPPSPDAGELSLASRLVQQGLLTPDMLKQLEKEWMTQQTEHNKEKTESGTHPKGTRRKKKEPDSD
# UniProt Q12962, whole entry: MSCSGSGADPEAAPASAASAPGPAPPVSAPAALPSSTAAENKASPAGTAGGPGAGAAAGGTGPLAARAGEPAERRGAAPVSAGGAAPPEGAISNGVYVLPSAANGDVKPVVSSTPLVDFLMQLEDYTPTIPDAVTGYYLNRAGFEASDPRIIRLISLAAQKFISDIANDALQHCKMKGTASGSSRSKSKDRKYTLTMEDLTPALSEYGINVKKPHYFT
# UniProt P63165, whole entry: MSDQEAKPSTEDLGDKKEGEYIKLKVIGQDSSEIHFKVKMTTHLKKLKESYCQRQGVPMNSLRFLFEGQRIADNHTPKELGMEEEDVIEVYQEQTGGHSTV
# UniProt Q9BX59, whole entry: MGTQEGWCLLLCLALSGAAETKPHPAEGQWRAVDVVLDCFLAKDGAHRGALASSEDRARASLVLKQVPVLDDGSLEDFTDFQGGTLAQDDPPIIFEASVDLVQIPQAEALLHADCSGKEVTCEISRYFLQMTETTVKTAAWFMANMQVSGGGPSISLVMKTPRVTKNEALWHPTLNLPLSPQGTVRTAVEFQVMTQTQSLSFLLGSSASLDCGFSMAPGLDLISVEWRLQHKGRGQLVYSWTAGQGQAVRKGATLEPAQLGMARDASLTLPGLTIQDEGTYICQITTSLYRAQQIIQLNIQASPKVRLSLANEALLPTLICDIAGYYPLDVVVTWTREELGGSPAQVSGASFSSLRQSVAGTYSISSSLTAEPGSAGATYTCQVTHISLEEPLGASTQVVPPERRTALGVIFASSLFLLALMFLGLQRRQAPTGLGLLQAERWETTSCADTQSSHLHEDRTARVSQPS
# UniProt P61009: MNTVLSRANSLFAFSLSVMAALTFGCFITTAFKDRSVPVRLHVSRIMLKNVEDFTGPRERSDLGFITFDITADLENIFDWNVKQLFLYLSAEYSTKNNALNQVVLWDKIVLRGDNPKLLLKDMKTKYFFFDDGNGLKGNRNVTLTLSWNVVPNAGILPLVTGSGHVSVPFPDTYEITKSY
# UniProt Q9NZD8: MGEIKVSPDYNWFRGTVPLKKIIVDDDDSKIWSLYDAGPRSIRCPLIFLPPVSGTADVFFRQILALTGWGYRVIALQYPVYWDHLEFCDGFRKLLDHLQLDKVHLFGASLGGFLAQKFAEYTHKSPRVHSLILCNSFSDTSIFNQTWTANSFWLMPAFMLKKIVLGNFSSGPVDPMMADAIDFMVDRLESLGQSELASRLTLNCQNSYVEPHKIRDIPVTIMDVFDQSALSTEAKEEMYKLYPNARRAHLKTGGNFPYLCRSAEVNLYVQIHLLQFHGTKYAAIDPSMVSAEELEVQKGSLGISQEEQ
# UniProt O75347: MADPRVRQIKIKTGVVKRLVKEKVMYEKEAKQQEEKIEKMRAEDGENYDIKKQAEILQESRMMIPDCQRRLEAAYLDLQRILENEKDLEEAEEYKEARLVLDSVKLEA
# UniProt Q96FJ0: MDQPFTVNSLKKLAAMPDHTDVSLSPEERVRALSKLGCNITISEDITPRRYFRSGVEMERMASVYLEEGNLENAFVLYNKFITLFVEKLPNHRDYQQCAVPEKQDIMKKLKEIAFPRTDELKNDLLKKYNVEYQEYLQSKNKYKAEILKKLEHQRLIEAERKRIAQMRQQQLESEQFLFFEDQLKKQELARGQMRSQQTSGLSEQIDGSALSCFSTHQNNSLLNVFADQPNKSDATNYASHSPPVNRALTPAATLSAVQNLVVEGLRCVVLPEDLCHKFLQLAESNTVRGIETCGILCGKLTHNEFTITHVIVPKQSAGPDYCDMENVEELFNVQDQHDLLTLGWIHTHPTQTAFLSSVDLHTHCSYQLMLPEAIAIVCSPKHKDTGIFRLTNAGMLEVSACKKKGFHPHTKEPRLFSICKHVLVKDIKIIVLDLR
# UniProt P15923: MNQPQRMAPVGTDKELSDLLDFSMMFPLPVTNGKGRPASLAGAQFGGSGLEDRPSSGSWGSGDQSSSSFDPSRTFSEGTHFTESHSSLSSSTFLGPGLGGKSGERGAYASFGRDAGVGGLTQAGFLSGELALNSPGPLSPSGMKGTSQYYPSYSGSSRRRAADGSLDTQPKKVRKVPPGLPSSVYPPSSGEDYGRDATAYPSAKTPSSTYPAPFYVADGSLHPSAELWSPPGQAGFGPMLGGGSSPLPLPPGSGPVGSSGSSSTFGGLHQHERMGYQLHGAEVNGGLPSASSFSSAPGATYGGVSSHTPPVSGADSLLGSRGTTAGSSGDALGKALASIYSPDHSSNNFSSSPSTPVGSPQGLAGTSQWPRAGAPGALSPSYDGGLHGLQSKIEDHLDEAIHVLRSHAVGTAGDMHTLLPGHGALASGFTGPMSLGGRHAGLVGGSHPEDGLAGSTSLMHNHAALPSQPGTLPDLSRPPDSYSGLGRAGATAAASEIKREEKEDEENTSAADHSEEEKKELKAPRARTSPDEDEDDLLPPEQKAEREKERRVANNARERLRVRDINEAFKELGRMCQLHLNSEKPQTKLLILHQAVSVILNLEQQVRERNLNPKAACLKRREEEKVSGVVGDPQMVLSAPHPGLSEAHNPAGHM
# Some of the results follow.
# Compound: COc1ccc(Cn2ccc3cc(C)c(C(=O)NO)cc32)cc1
# Experiment: dose-dependent thermal stabilisation call (2D-TPP, DLPTP, 10% FDR) (binary (1 = stabilised)); higher = stabilised by the compound
# Settings: system: HL-60 intact cells; concentration range 0.04-10 µM
# Protocol: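 2D thermal proteome profiling in intact HL-60 cells treated with BRD-3811 (0, 0.04, 0.29, 2, 10 uM) for 90 min at 37 C, then heated 3 min at one of 12 temperatures (42-63.9 C). Soluble protein was quantified by TMT10 MS. The value is the DLPTP call of the paper: dose-dependent thermal stabilisation over all temperatures at 10% FDR (F-test of a dose-response against a flat model); one experiment, one call per tested protein.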
row,Target,dose-dependent thermal stabilisation call
1,STAU1 (UniProt O95793),inactive: 0
2,TEX10 (UniProt Q9NXF1),inactive: 0
3,SPG20 (UniProt Q8N0X7),inactive: 0
4,TADA1L (UniProt Q96BN2),inactive: 0
5,TCP10L (UniProt Q8TDR4),inactive: 0
6,STK33 (UniProt Q9BYT3),inactive: 0
7,SUCLG1 (UniProt P53597),inactive: 0
8,SSRP1 (UniProt Q08945),inactive: 0
9,SRI (UniProt P30626),inactive: 0
10,SURF4 (UniProt O15260),inactive: 0
11,SRP68 (UniProt Q9UHB9),inactive: 0
12,STK3 (UniProt Q13188),inactive: 0
13,TARS2 (UniProt Q9BW92),inactive: 0
14,STK25 (UniProt O00506),inactive: 0
15,TDRD7 (UniProt Q8NHU6),inactive: 0
16,TAF5 (UniProt Q15542),inactive: 0
17,SYNGR2 (UniProt O43760),inactive: 0
18,TDRD3 (UniProt Q9H7E2),inactive: 0
19,SPEN (UniProt Q96T58),inactive: 0
20,SP1 (UniProt P08047),inactive: 0

row,Target,dose-dependent thermal stabilisation call
1,TBC1D1 (UniProt Q86TI0),inactive: 0
2,SUPV3L1 (UniProt Q8IYB8),inactive: 0
3,SPRYD4 (UniProt Q8WW59),inactive: 0
4,TAF10 (UniProt Q12962),inactive: 0
5,TARBP1 (UniProt Q13395),inactive: 0
6,SUMO1 (UniProt P63165),inactive: 0
7,STOM (UniProt P27105),inactive: 0
8,TAPBPL (UniProt Q9BX59),inactive: 0
9,SPATA5L1 (UniProt Q9BVQ7),inactive: 0
10,SPCS3 (UniProt P61009),inactive: 0
11,TATDN2 (UniProt Q93075),inactive: 0
12,TBCE (UniProt Q15813),inactive: 0
13,SSX2IP (UniProt Q9Y2D8),inactive: 0
14,SPG21 (UniProt Q9NZD8),inactive: 0
15,TBCA (UniProt O75347),inactive: 0
16,SYVN1 (UniProt Q86TM6),inactive: 0
17,TBC1D23 (UniProt Q9NUY8),inactive: 0
18,STAMBPL1 (UniProt Q96FJ0),inactive: 0
19,TCF3 (UniProt P15923),inactive: 0
20,STX10 (UniProt O60499),inactive: 0

# No new results follow: entries from further up.
row,Target,dose-dependent thermal stabilisation call
2,SUPV3L1 (UniProt Q8IYB8),inactive: 0
3,SPRYD4 (UniProt Q8WW59),inactive: 0
4,TAF10 (UniProt Q12962),inactive: 0
5,TARBP1 (UniProt Q13395),inactive: 0
6,SUMO1 (UniProt P63165),inactive: 0
7,STOM (UniProt P27105),inactive: 0
8,TAPBPL (UniProt Q9BX59),inactive: 0
9,SPATA5L1 (UniProt Q9BVQ7),inactive: 0
10,SPCS3 (UniProt P61009),inactive: 0
11,TATDN2 (UniProt Q93075),inactive: 0
12,TBCE (UniProt Q15813),inactive: 0
